Results are given in words; binding and its absence hold for the method and conditions named.

Amino acid sequences for entries named in this document (tags omitted). A change or cut given only in a name is not applied to a line headed by its entry.
UniProt P45974: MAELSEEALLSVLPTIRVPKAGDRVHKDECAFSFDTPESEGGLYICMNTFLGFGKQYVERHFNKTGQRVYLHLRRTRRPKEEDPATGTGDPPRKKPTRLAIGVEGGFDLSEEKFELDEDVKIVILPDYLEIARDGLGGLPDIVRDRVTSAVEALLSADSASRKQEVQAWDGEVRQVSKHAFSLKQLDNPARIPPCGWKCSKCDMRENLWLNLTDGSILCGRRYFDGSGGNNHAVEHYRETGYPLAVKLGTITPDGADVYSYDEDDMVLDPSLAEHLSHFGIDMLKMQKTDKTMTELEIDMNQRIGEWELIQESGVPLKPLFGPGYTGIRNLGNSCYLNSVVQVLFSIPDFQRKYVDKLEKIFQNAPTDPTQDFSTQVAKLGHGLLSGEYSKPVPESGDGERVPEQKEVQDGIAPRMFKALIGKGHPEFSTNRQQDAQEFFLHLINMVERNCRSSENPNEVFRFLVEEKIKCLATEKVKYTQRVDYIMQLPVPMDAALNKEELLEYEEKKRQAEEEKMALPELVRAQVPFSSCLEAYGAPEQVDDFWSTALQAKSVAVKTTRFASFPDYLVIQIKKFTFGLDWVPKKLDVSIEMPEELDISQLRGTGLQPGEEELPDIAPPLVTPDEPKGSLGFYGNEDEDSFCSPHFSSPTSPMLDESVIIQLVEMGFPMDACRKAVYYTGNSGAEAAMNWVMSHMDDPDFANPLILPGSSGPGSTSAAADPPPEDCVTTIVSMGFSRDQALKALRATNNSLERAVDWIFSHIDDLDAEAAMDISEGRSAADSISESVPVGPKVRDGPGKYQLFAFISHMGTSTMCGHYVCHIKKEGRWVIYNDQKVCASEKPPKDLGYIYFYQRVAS

The target of this assay is truncated USP5 variant lacking the ZnF-UBP domain (human) (UniProt P45974). Kind of assay: ITC; SDE2 construct or Ub titrated into USP5 construct; ITC200, 298 K; 50 mM HEPES, 100 mM NaCl, 1 mM TCEP, pH 7.5; duplicate experiments; both purified. On the technique in general: ITC needs no label: the signal is the heat of the interaction.

B1: SDE2 ubiquitin-like domain, SDE2UBL(1-77) (domain or fragment, UniProt Q6IQ49-1 1-77)
chain: MAEAAALVWIRGPGFGCKAVRCASGRCTVRDFIHRHCQDQNVPVENFFVKCNGALINTSDTVQHGAVYSLEPRLCGG
With B1, the binding result is reported as “no binding”.

For the origin of these results see publication PMC13572447.
